From patent publication US20240272170A1 (QUANTUM SI, published 2024)

What was measured:
[1] = molecular target: T1, QP1165 after cleavage to N-terminal glutamine (QRVWK); test: on-chip dynamic sequencing of QP1165, PS2121 run, trace Aperture=740473
T1 peptide: QRVWK

[2] = molecular target: T1, QP1165 after cleavage to N-terminal …; test: on-chip dynamic sequencing of QP1165, PS2132 run, trace Aperture=1826247
[3] = molecular target: T1, QP1165 after cleavage to N-terminal …; test: on-chip dynamic sequencing of QP1165, PS1875 run, trace Aperture=430641
[4] = molecular target: T1, QP1165 after cleavage to N-terminal …; test: on-chip dynamic sequencing of QP1165, PS2123 run, trace Aperture=501326
[5] = molecular target: T1, QP1165 after cleavage to N-terminal …; test: on-chip dynamic sequencing of QP1165, 500 nM PS1875 plus five recognizers, 11565 alignments
Method: The semiconductor chip was placed in the sequencing device and a chip check was performed to test electronic circuit function and to optimize laser coupling alignment. The chip was then removed from the device socket and the chip was washed twice with 50 μL of 70% isopropanol, followed by four washes with 30 μL of wash buffer (50 mM MOPS pH 8.0, 60 mM potassium acetate, 50 mM glucose, 20 mM magnesium acetate, and surfactant mix) through a flow cell attached to the chip. A second chip check was then performed. The laser was then blocked via an integrated software-controlled shutter, peptide complex was added to a final concentration of 1-10 nM and mixed thoroughly, and the chip was incubated for 15 min. The chip was then washed six times with wash buffer, followed by addition of an imaging solution (wash buffer with 5 mM Trolox and an oxygen scavenging system). The laser was unblocked and the occupancy percentage (target 10-30%, Poisson distributed) was recorded by acquiring a photobleaching signal from a fluorophore attached to the peptide complex during 5 min of laser illumination. […] Data was recorded for 15 min. […] The laser was then unblocked, and data was recorded for 10 hours. […]

[6] = molecular target: T1, QP1165 after cleavage to N-terminal …; test: on-chip dynamic sequencing of QP1165, 500 nM PS1875 plus five recognizers, 3369 alignments
[7] = molecular target: T1, QP1165 after cleavage to N-terminal …; test: on-chip dynamic sequencing of QP1165, 500 nM PS2123 plus five recognizers, 62511 alignments
[8] = molecular target: T1, QP1165 after cleavage to N-terminal …; test: on-chip dynamic sequencing of QP1165, PS1875 run, trace Aperture=340501
[9] = molecular target: T1, QP1165 after cleavage to N-terminal …; test: on-chip dynamic sequencing of QP1165, 500 nM PS2132 plus five recognizers, 36192 alignments
[10] = molecular target: T1, QP1165 after cleavage to N-terminal …; test: on-chip dynamic sequencing of QP1165, PS2121 run, trace Aperture=1683362
[11] = molecular target: T1, QP1165 after cleavage to N-terminal …; test: on-chip dynamic sequencing of QP1165, PS2132 run, trace Aperture=376215
[12] = molecular target: T1, QP1165 after cleavage to N-terminal …; test: on-chip dynamic sequencing of QP1165, PS1875 run, trace Aperture=1353995
[13] = molecular target: T1, QP1165 after cleavage to N-terminal …; test: on-chip dynamic sequencing of QP1165, PS1875 run, trace Aperture=295010
[14] = molecular target: T1, QP1165 after cleavage to N-terminal …; test: on-chip dynamic sequencing of QP1165, 500 nM PS2121 plus five recognizers, 15527 alignments
[15] = molecular target: T1, QP1165 after cleavage to N-terminal …; test: on-chip dynamic sequencing of QP1165, 500 nM PS1875 plus five recognizers, 7305 alignments

B1: PS1599 (designed binder)
single polypeptide, two PS1259 units in tandem: MNGLSAQHERIAPARHECVYTSCYSEENVWKLCEHIKTSKRCPLGDVYAVFISNERKMVPIWKQKSGRGEEPVIWDYQVILLHDCHKEQTFIYDLDTTLPFPCPFDTYVKEAFKSDNYINPAFWRKLRVVPADVFLQNFASDRSHMKDASGGWRMPPPPYPCIETAESRMNLDDFISMNPSVGWGHVYTLEEFVQHFGKTEEEKRKREEEEMNGLSAQHERIAPARHECVYTSCYSEENVWKLCEHIKTSKRCPLGDVYAVFISNERKMVPIWKQKSGRGEEPVIWDYQVILLHDCHKEQTFIYDLDTTLPFPCPFDTYVKEAFKSDNYINPAFWRKLRVVPADVFLQNFASDRSHMKDASGGWRMPPPPYPCIETAESRMNLDDFISMNPSVGWGHVYTLEEFVQHFGKT
notes: also called PS1599 (NQ); PS1599 (R1C1)
PD of a recognition segment in an example trace [1]: 2.84 s
PD of a recognition segment in an example trace [2]: 4.3 s
PD of a recognition segment in an example trace [3]: 7.25 s
PD of a recognition segment in an example trace [4]: 4.47 s
IPD (interpulse duration) [5]: 17.1 s
PD (pulse duration) [5]: 5.78 s
IPD (interpulse duration) [6]: 15.2 s
PD (pulse duration) [6]: 5.27 s
IPD (interpulse duration) [7]: 16.7 s
PD (pulse duration) [7]: 3.61 s
PD of a recognition segment in an example trace [8]: 11.4 s
IPD (interpulse duration) [9]: 15.3 s
PD (pulse duration) [9]: 2.5 s
PD of a recognition segment in an example trace [10]: 4.56 s
PD of a recognition segment in an example trace [11]: 3.27 s
PD of a recognition segment in an example trace [12]: 6.5 s
PD of a recognition segment in an example trace [13]: 7 s
IPD (interpulse duration) [14]: 17 s
PD (pulse duration) [14]: 2.57 s
IPD (interpulse duration) [15]: 16.9 s
PD (pulse duration) [15]: 5.16 s
